# Experimental data as given in PubChem BioAssay AID493014 (National Center for Advancing Translational Sciences (NCATS), 2011).
# Some of the results follow. These are further read-outs of the screen, such as a control signal, another cell line or another target. No call is given for them. The list favours compounds with an active or inconclusive main result. The note in brackets gives the kind of curve behind each potency; many fits are weak.
# Experiment: qHTS Assay to Find Inhibitors of Chronic Active B-Cell Receptor Signaling
# Conditions: ABC-DLBCL IkBa-CBG/CBR reporter, luminescence ratio (green luciferase fused to IkBa over red control in TMD8 lymphoma cells), 4 h
# Outline: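 Concentration-response series (up to 46 uM) were applied to TMD8 dual-reporter cells for 4 h at 37C with doxycycline. Green/red ratio, after filter-overlap correction, defined %Activity; red signal alone was normalised to basal cells and zero luminescence.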
# [1] = measured here: CBR red luminescence, cell number
# [2] = measured here: IkBa-CBG green luminescence
Structure (SMILES),AC50 [1],AC50 [2]
CCSC1=C(C#N)C(c2ccccc2C)CC(=O)N1 (centres undefined),"0.00651 µM [rising, full curve, poor fit]",
N#Cc1cn(CCCOc2ccccc2)c2ccccc12,"10.3 µM [rising, partial curve, poor fit]",
NC(=S)N/N=C/c1ccc(-c2ccc(SC(F)F)cc2)o1,"2.82 µM [falling, full curve]","5.62 µM [falling, single point]"
O=c1cc(-c2ccccc2)oc2ccc(Br)cc12,"1.64 µM [rising, full curve, poor fit]",
CC(C)(C)c1ccc(/C=C2\Oc3c(ccc(O)c3CN3CCN(CCO)CC3)C2=O)cc1,"14.1 µM [falling, single point]",
Fc1ccc(-c2nnc(CSc3nnc(-c4ccc5c(c4)OCO5)o3)o2)cc1,"3.16 µM [falling, single point]",
O=C(CN1C(=O)NC2(CCCC2)C1=O)OCCOc1cccc(Cl)c1,"2.91 µM [rising, full curve, poor fit]",
CCCCn1c(SCC(N)=O)nc2ccc(N3CCOCC3)cc2c1=O,"25.1 µM [falling, single point]",
O=C(O)c1ccc2nc(-c3ccccc3)sc2c1,"3.66 µM [falling, full curve]",
COc1cccc(NC(=O)C(=O)N/N=C(\C)CC(=O)Nc2ccc(NC(C)=O)cc2)c1,"2.51 µM [falling, partial curve, poor fit]",
Cc1ccc(S(=O)(=O)NCc2cn3ccsc3n2)c(C)c1,"3.98 µM [falling, full curve]",
NS(=O)(=O)c1ccc(N2N=C(c3ccc(Br)cc3)CC2c2ccc(F)cc2)cc1 (centres undefined),"18.4 µM [falling, partial curve]",
O=C(O)CCCCCCCCc1cn(Cc2ccc(C(=O)c3ccccc3)cc2)nn1,"7.08 µM [rising, full curve]","10 µM [falling, partial curve]"
Cc1cc(C)n(-c2nc(NCC3CCCO3)c3c4c(sc3n2)COC(C)(C)C4)n1 (centres undefined),"0.731 µM [falling, full curve, poor fit]",
COc1cc2c(cc1NC(=O)c1cccnc1)oc1ccccc12,"16.4 µM [falling, single point]",
Cc1ccc(-n2nnc(-c3nccs3)n2)cc1,"7.94 µM [falling, partial curve]",
O=C(CNC(=O)c1[nH]cnc1C(=O)N[C@@H](Cc1ccccc1)C(=O)OCc1ccccc1)OCc1ccccc1,"3.98 µM [falling, single point]",
O=C(O)C1CCN(C(=O)COc2ccc(Br)cc2)CC1,"4.47 µM [falling, full curve]",
CCCOc1ccc(-c2cn3ccccc3n2)cc1[N+](=O)[O-],"6.51 µM [rising, partial curve]",
CCCc1cc(C(=O)NCCc2ccccc2)no1,"14.6 µM [falling, partial curve]",
Cn1c(/C=C(\C#N)C(N)=S)ccc1-c1ccc(Br)cc1,"35.5 µM [falling, single point]",

Structure (SMILES),AC50 [1],AC50 [2]
Cc1cn(C)c(CC(=O)Nc2ccc(F)cc2Cl)c1C(=O)O,"6.31 µM [falling, single point]",
COc1ccc(NC(=O)NNS(=O)(=O)c2ccc(OC)c(OC)c2)c(OC)c1,"12.6 µM [rising, partial curve, poor fit]",
CCOC(=O)Nc1ccc(C(=O)Oc2ccccc2)c(O)c1,"3.98 µM [rising, partial curve, poor fit]",
Cc1ccc([N+](=O)[O-])cc1N(CC(=O)Nc1ccc(S(=O)(=O)Nc2cccc(C(F)(F)F)c2)cc1)S(C)(=O)=O,"20.6 µM [falling, partial curve]",
O=C(CSc1nnc(CNC(=O)C23CC4CC(CC(C4)C2)C3)n1-c1ccccc1)Nc1ccccc1,"0.206 µM [falling, full curve, poor fit]",
CN1CCN(Cc2nc3ccccc3c(=O)n2Cc2nc(-c3cccc([N+](=O)[O-])c3)cs2)CC1,"20 µM [falling, partial curve, poor fit]",
CC(C)C(C)(C#N)NC(=O)CSc1nc2scc(-c3ccc(F)cc3)c2c(=O)n1Cc1ccccc1 (centres undefined),"16.4 µM [falling, single point]",
CC(=O)c1cc(CC=C(C)C)c(O)cc1O,"11.2 µM [rising, partial curve]",
Cn1c(=O)n(C)c2cc(NS(=O)(=O)c3ccccc3)ccc21,"17.8 µM [rising, partial curve, poor fit]",
CC(=O)C1=C(c2cccc([N+](=O)[O-])c2)N(C(C)=O)n2c(nnc2-c2ccc(C)cc2)S1,"0.708 µM [rising, full curve, poor fit]",
CCn1c(SCC(=O)N2CCCC2)nc2ccccc2c1=O,"2.51 µM [falling, partial curve, poor fit]",
COCCC(=O)N1CCC(Oc2ccc(C(=O)N3CCCCC3CCO)cc2)CC1 (centres undefined),"35.5 µM [rising, partial curve, poor fit]",
C[C@H](CO)N1C[C@H](C)[C@@H](CN(C)C(=O)Nc2ccc3c(c2)OCO3)Oc2ccc(NC(=O)CCC(F)(F)F)cc2C1=O,"20.6 µM [rising, single point]",
COc1ccc(Cl)cc1C(=O)Nc1nc2ccccc2[nH]1,"0.224 µM [falling, full curve]",
Cc1ccc(C(=O)COC(=O)c2n[nH]c(=O)c3ccccc23)cc1,"29.1 µM [rising, single point]",
CC(C)C(NC(=O)c1ccc2c(c1)OCO2)C(=O)N/N=C/c1cccs1 (centres undefined),"0.92 µM [rising, full curve, poor fit]",
Cc1occc1C(=O)N/N=C/C=C/c1ccccc1[N+](=O)[O-],"22.4 µM [falling, partial curve]",
COc1ccc(C)c2sc(NC(=O)CCS(=O)(=O)c3ccccc3)nc12,"3.55 µM [falling, partial curve, poor fit]",
Cc1c(C(=O)N2CCOCC2)sc(NC(=O)Cc2ccccc2)c1C#N,"2 µM [rising, partial curve, poor fit]",
C[C@@H]1CN([C@@H](C)CO)C(=O)c2cccc(NC(=O)C3CCCCC3)c2O[C@@H]1CN(C)C(=O)NC1CCCCC1,"25.9 µM [falling, single point]",
O=C(CNCCCO)Nc1cc(C(F)(F)F)cc(NC(=O)CNCCCO)c1Cl,"7.31 µM [rising, partial curve]",

# Complete entries as entered above.
# Cn1c(=O)n(C)c2cc(NS(=O)(=O)c3ccccc3)ccc21 in the list: AC50 [1]: 17.8 µM [rising, partial curve, poor fit]
# COc1ccc(NC(=O)NNS(=O)(=O)c2ccc(OC)c(OC)c2)c(OC)c1 in the list: AC50 [1]: 12.6 µM [rising, partial curve, poor fit]
# C[C@H](CO)N1C[C@H](C)[C@@H](CN(C)C(=O)Nc2ccc3c(c2)OCO3)Oc2ccc(NC(=O)CCC(F)(F)F)cc2C1=O in the list: AC50 [1]: 20.6 µM [rising, single point]
# Cc1occc1C(=O)N/N=C/C=C/c1ccccc1[N+](=O)[O-] in the list: AC50 [1]: 22.4 µM [falling, partial curve]

# Next part:

Structure (SMILES),AC50 [1],AC50 [2]
COc1ccc(N2CCN(c3nc4ccccc4nc3NS(=O)(=O)c3ccccc3)CC2)cc1,"9.2 µM [falling, partial curve]",
Cc1ccc(NC(=O)c2cc(-c3ccccc3)n[nH]2)cc1,"17.8 µM [falling, partial curve, poor fit]",
Cc1cc(C)n2nc(C(=O)NNC(=O)c3ccccc3)nc2n1,"1.58 µM [falling, partial curve, poor fit]",
COc1ccc2c(c1)c1ncn(CCN3CCCCC3)c(=O)c1n2C,"29.1 µM [falling, single point]",
CN(Cc1ccc(Cl)s1)C(=O)CCl,"8.91 µM [falling, partial curve]",
O=C(COC(=O)CCC(=O)c1cccs1)Nc1cccc(F)c1,"0.731 µM [rising, partial curve, poor fit]",
CCCCOc1ccc(C(=O)Nc2cccc(C)n2)cc1,"2.24 µM [falling, full curve]",
O=C1c2[nH]nc(-c3ccccc3O)c2C(c2cccc(O)c2)N1Cc1ccco1 (centres undefined),"12.6 µM [falling, single point]",
CC1CC(C)(C)Nc2ccc(N=O)cc21 (centres undefined),"22.4 µM [falling, partial curve, poor fit]",
COc1ccc(CSc2nc(C)[nH]c2[N+](=O)[O-])cc1[N+](=O)[O-],"14.1 µM [rising, single point]",
COc1ccccc1NC(=O)CSc1nnc(-c2ccc(C)cc2)o1,"15.8 µM [falling, partial curve]",
CCC(C)(C)NC(=O)C(c1ccc(O)cc1)N(Cc1ccco1)C(=O)CCC(=O)Nc1ccccn1 (centres undefined),"35.5 µM [falling, single point]",
Cc1c(Br)c(=O)oc2c(Br)c(O)c(O)cc12,"23.1 µM [falling, single point]",
Cc1ccc(NC(=O)COC(=O)c2c(-c3ccccc3)noc2C)c(C)c1,"2.06 µM [rising, partial curve, poor fit]",
O=C(O)c1cccc(-n2c(O)c(C=C3N=c4ccccc4=N3)sc2=S)c1,"3.16 µM [falling, full curve]",
Cc1ccc(S(=O)(=O)NCCC(=O)OCC(=O)N(Cc2ccccc2)C(C)(C)C)cc1C,"0.366 µM [rising, full curve]",
Nc1c(C(=O)NCc2ccco2)c2nc3ccccc3nc2n1CCc1ccccc1,,"29.1 µM [falling, partial curve, poor fit]"
COc1ccc(C[C@H]2CN3C(=NC[C@@H]3Cc3ccccc3)N2CCNC(=O)c2ccc(C)c(Br)c2)cc1,"35.5 µM [falling, single point]",
CCCCN1C(=O)/C(=C/C=C2/C=Cc3ccccc3N2CC)SC1=S,"35.5 µM [rising, single point]",
COc1ccc(CCCNC(=O)C2CCC(=O)N(CCCN3CCCC3=O)C2)cc1 (centres undefined),"0.398 µM [falling, full curve]",
